In article PMC4934914 one finds binding data, which are given here for one substance.

By UniProt entry, the sequences of proteins in these tests, tags left out. Where a name states a change or a piece, a line headed by the entry shows the natural chain unless it says otherwise.
UniProt O32164: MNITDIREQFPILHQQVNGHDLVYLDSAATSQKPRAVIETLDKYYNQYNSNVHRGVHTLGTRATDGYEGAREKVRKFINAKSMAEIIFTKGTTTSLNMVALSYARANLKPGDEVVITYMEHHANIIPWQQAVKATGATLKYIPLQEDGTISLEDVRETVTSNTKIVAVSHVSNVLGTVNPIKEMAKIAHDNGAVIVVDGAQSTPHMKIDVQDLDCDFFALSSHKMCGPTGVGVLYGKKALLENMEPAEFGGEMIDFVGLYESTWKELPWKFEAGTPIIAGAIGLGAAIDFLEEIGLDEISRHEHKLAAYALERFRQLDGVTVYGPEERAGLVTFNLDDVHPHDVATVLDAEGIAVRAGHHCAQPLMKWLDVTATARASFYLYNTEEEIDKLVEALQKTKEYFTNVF

These are yes or no findings as the source states them, for the method shown. Some binding calls cover weakened binding; strength is not graded here.

This experiment concerns the target T1, Bacillus subtilis frataxin homolog Fra (Bacillus subtilis) (UniProt Q797E6).
T1 sequence: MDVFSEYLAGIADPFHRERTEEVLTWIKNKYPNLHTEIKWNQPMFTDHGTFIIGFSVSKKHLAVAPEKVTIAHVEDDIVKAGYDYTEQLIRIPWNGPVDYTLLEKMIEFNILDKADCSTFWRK
Description: HDX-MS; 60 μM of each component in 25 mM Tris-Cl pH 7.5, 100 mM NaCl; exchange in D2O buffer at 25°C for 15, 30, 60 or 600 s; online pepsin digestion; both purified.

Consider “BsSufS/BsSufU complex (from UniProt O32164 1-406; O32163 1-147)”, for which the binding entry is recorded as “binds”.
